Results taken from the supplement of paper PMC12067093, “Discovery and optimisation of a covalent ligand for TRIM25 and its application to targeted protein ubiquitination” (Chemical Science, 2025).
This is one part of the list.

Protein sequences, listed by entry. Tags and fused reporters are not part of them. Lines headed by an entry give the natural chain unless they say otherwise; changes in a name come on top.
UniProt P54098: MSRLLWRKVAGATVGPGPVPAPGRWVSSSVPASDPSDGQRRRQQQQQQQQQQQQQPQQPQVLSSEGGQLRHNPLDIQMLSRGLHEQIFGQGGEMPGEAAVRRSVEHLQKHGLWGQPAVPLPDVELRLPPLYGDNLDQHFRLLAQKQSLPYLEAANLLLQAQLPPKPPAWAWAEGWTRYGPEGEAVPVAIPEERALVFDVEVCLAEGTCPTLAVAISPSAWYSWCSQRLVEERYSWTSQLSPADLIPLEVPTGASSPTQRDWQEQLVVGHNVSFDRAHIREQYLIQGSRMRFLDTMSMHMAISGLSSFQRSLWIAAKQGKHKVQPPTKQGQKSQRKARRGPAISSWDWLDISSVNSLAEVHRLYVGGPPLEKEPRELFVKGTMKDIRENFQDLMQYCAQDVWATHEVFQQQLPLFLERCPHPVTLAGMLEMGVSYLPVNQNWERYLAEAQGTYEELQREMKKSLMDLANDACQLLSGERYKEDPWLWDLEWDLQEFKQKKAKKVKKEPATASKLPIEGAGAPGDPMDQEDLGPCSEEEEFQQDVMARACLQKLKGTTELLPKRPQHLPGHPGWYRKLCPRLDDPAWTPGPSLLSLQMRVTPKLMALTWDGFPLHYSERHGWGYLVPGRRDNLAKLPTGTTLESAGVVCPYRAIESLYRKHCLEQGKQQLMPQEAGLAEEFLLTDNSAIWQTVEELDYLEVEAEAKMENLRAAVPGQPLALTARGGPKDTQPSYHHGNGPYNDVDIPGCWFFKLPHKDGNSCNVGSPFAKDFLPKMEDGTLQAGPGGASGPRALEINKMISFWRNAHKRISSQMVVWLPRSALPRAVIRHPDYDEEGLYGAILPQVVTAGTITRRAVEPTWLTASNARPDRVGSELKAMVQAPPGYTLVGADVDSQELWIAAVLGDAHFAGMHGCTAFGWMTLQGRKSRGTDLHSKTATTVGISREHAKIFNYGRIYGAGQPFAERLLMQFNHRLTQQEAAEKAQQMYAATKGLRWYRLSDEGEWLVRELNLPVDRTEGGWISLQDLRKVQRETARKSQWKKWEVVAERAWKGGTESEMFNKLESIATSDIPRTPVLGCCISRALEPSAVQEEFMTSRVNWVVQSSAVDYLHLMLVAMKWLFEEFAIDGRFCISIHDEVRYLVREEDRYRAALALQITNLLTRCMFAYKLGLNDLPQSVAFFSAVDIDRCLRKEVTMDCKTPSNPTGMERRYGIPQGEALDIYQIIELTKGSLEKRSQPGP
UniProt Q9P215: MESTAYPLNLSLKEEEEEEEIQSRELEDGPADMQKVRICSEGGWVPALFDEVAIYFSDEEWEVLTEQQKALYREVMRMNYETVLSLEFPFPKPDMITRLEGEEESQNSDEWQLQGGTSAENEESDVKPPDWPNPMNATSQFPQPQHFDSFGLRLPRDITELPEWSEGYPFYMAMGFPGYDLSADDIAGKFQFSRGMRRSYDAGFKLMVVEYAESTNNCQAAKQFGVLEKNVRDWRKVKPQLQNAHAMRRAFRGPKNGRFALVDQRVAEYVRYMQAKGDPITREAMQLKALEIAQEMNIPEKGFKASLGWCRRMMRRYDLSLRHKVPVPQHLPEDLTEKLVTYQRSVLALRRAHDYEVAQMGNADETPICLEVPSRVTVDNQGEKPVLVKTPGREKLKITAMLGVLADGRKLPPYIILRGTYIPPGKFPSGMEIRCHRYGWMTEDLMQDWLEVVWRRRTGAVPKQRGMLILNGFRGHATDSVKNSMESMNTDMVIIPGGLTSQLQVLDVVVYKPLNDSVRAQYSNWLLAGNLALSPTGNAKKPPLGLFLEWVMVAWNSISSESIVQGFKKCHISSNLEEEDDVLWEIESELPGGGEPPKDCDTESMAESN
UniProt Q8NBT0: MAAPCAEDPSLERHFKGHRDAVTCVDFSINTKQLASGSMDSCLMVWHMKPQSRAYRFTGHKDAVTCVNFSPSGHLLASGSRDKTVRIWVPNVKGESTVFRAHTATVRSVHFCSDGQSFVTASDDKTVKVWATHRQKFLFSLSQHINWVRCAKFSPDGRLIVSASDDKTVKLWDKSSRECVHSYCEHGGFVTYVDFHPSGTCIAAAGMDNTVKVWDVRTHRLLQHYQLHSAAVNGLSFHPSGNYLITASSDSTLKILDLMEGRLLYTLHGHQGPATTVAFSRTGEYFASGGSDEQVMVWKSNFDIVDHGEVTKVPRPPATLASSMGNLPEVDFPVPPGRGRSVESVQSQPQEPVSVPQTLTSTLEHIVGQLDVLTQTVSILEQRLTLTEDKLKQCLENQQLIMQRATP
UniProt Q7Z3K3: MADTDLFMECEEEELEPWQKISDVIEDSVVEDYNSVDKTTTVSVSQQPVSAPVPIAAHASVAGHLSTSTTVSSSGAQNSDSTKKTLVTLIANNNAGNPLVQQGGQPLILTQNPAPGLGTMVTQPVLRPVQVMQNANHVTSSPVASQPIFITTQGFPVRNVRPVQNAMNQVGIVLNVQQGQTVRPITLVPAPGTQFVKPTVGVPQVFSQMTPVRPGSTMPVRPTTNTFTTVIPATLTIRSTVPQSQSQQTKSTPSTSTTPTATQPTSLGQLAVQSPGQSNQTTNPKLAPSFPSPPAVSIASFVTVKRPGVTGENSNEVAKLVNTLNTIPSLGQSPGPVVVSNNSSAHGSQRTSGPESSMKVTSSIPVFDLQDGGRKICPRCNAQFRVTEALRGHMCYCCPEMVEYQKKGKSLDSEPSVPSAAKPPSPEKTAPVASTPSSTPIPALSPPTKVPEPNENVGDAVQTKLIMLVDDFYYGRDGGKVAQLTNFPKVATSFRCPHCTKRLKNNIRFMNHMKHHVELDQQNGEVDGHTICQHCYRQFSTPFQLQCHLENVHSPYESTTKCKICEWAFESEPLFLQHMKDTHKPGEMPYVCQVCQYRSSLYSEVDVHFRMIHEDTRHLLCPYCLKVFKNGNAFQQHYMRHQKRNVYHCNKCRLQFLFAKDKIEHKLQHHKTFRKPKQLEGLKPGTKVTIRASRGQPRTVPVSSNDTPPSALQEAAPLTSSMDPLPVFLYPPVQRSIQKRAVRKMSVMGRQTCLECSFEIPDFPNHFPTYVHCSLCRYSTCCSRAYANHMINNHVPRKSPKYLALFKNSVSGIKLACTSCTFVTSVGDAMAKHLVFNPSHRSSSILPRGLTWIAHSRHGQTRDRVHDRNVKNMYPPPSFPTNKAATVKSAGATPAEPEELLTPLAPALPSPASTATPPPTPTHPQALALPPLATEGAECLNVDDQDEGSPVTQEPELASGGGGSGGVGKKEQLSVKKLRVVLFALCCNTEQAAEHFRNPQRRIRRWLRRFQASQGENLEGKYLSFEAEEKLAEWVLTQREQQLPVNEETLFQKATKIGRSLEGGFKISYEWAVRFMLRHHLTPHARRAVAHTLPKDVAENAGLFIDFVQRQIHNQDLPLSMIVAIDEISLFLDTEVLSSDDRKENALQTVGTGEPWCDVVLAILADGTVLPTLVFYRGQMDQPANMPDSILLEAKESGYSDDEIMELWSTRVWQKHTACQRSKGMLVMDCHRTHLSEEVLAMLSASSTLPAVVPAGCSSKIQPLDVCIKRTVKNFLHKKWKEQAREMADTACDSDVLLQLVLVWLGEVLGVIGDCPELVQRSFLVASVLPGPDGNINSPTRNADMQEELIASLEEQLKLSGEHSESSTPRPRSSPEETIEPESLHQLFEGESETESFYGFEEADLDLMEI
UniProt P28340: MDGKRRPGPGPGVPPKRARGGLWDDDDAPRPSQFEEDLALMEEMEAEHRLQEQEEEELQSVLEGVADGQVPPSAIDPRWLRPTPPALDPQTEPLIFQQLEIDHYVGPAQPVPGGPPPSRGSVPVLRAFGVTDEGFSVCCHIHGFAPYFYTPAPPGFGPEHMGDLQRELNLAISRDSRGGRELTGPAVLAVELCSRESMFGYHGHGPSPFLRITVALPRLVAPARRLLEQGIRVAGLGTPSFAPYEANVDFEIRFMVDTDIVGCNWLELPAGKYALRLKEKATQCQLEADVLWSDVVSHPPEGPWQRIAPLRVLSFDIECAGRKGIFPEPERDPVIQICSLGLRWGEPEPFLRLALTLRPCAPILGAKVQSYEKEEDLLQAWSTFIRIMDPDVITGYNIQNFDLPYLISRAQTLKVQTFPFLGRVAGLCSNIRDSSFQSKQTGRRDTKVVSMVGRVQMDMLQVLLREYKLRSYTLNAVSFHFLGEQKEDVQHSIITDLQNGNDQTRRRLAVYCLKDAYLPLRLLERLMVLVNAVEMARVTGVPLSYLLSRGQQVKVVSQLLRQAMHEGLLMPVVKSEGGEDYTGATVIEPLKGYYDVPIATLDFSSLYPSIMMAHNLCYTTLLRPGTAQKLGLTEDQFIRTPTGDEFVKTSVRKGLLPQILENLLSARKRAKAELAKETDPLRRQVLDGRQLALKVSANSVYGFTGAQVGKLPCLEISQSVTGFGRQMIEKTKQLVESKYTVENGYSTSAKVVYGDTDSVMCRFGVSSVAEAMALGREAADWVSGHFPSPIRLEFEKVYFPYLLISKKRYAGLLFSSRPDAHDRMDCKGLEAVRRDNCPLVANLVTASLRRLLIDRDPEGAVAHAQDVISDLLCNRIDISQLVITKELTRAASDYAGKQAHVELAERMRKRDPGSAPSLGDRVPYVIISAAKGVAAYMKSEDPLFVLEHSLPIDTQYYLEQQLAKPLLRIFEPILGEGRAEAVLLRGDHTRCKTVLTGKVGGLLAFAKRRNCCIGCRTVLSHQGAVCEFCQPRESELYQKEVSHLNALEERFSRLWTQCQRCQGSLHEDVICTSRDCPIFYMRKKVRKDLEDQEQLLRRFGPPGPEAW
UniProt Q15181: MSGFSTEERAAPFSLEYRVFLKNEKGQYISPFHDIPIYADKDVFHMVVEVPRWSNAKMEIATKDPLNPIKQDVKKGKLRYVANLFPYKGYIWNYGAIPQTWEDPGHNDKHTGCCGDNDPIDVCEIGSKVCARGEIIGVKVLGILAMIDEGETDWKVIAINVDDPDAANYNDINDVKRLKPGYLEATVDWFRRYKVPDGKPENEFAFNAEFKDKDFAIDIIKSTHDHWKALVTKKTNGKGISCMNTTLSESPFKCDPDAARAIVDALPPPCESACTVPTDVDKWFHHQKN
UniProt P16435: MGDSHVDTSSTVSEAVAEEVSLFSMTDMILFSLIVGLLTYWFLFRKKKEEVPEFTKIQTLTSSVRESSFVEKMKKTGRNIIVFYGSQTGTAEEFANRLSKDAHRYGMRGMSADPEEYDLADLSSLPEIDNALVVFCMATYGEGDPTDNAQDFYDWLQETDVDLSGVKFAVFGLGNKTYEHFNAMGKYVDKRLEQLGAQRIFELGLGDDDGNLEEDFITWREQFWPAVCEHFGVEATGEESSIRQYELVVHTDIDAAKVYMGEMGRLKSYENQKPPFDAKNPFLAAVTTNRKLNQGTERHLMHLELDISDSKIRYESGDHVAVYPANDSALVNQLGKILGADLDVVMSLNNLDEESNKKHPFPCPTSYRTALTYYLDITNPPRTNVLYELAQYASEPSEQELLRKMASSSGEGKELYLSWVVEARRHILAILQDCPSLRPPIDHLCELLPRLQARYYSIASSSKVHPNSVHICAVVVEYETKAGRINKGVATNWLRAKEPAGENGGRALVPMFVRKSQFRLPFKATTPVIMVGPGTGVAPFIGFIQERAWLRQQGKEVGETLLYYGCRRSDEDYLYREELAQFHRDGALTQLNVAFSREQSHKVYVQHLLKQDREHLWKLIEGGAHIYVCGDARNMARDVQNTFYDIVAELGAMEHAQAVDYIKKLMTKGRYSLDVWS
UniProt Q15054: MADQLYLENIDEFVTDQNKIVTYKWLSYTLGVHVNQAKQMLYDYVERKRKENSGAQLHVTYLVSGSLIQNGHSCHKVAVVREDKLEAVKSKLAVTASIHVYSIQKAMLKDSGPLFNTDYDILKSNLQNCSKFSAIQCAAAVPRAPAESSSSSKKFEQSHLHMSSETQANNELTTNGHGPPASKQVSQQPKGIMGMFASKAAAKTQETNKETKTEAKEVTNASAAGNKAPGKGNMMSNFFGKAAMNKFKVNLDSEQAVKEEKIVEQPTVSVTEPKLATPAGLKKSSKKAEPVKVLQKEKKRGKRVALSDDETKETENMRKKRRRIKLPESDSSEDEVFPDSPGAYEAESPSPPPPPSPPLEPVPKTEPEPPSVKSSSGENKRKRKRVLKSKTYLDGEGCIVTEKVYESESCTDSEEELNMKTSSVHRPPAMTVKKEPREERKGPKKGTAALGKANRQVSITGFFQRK
UniProt Q9H2U2: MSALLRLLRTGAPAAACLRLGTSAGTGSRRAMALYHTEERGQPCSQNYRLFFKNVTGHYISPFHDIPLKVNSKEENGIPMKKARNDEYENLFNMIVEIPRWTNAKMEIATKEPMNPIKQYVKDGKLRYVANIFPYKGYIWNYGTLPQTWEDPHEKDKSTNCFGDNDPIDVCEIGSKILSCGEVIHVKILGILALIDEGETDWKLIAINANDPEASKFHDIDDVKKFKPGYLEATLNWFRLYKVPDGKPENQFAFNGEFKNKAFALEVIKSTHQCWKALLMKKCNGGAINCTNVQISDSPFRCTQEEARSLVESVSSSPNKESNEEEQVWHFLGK

compound: CC1Cc2ccccc2N1C(=O)C1CCCN(C1)C(=O)CCl (mixture of isomers) [TRIM25 ligand 11 (diastereomer mixture)]; test: probe-labelled cysteine peptide fold change vs DMSO (competition) (log2 fold change); higher = less target engagement (more negative = stronger competition); settings: 10 µM; THP-1; incubation time: 4 h
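Note: competitive chemoproteomic profiling in live THP-1 cells with an iodoacetamide desthiobiotin (IA-DTB) probe, comparing probe-labelled peptide intensities in compound-treated cells against DMSO-treated controls.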

Target	probe-labelled cysteine peptide fold change
POLG_P54098_760_DGNSCNVGSPFAK (UniProt P54098)	-0.102
POP1_Q99575_283_ALSGMCNIDTGLTFAAVHCLSGKR (UniProt Q99575)	-0.263
POLR2L_P62875_10_CFTCGK (UniProt P62875)	-0.177
PNP_P00491_206_ELQEGTYVMVAGPSFETVAECR (UniProt P00491)	0.0672
POLR2I_P36954_86_TEDHPCQK (UniProt P36954)	-0.131
POGK_Q9P215_369_AHDYEVAQMGNADETPICLEVPSR (UniProt Q9P215)	-0.0537
PPFIBP2_Q8ND30_145_DLEVCLEGHQVK (UniProt Q8ND30)	0.0904
POC1A_Q8NBT0_66_DAVTCVNFSPSGHLLASGSR (UniProt Q8NBT0)	0.0194
POGZ_Q7Z3K3_986_VVLFALCCNTEQAAEHFR (UniProt Q7Z3K3)	0.0323
POLB_P06746_239_FMGVCQLPSK (UniProt P06746)	-0.0305
POGK_Q9P215_369_RAHDYEVAQMGNADETPICLEVPSR (UniProt Q9P215)	0.0758
POLD1_P28340_837_DNCPLVANLVTASLRR (UniProt P28340)	-0.49
PPA1_Q15181_113+114+123_HTGCCGDNDPIDVCEIGSK (UniProt Q15181)	0.0115
POR_P16435_629_LIEGGAHIYVCGDAR (UniProt P16435)	0.0803
POLD3_Q15054_137_FSAIQCAAAVPR (UniProt Q15054)	0.0137
POLD1_P28340_837_RDNCPLVANLVTASLRR (UniProt P28340)	-0.3
PPA2_Q9H2U2_44_GQPCSQNYR (UniProt Q9H2U2)	-0.00102
POLR2K_P53803_22_QQPMIYICGECHTENEIK (UniProt P53803)	-0.198

Given bar-delimited: entries from further up.
Target | probe-labelled cysteine peptide fold change
PPA1_Q15181_113+114+123_HTGCCGDNDPIDVCEIGSK (UniProt Q15181) | 0.0115
POR_P16435_629_LIEGGAHIYVCGDAR (UniProt P16435) | 0.0803
POLD3_Q15054_137_FSAIQCAAAVPR (UniProt Q15054) | 0.0137
POLD1_P28340_837_RDNCPLVANLVTASLRR (UniProt P28340) | -0.3
PPA2_Q9H2U2_44_GQPCSQNYR (UniProt Q9H2U2) | -0.00102
POLR2K_P53803_22_QQPMIYICGECHTENEIK (UniProt P53803) | -0.198

The results go on:

Target	probe-labelled cysteine peptide fold change
POLR1C_O15160_256_CFSPGVIEVQEVQGK (UniProt O15160)	-0.0104
POLR3A_O14802_742_LQQQPGCTAEETLEALILK (UniProt O14802)	-0.0948
POLR2G_P62487_106_VGLFTEIGPMSCFISR (UniProt P62487)	0.138
POLR1B_Q9H9Y6_1070_SVAHVCVK (UniProt Q9H9Y6)	0.102
POC1A_Q8NBT0_5_AAPCAEDPSLER (UniProt Q8NBT0)	-0.0524
POLR1A_O95602_1332_CLRPEDILR (UniProt O95602)	-0.117
PPIA_P62937_161_KITIADCGQLE (UniProt P62937)	-0.0916
POM121C_A8CG34_245_MVCSPVTVR (UniProt A8CG34)	-0.224
POLR2A_P24928_109_CVCFFCSK (UniProt P24928)	-0.311
POGZ_Q7Z3K3_398_GHMCYCCPEMVEYQK (UniProt Q7Z3K3)	0.104
POFUT2_Q9Y2G5_375_DGGVAIIDQWICAHAR (UniProt Q9Y2G5)	-0.112
POLR1D_P0DPB6_68_NPEVEFCGYTTTHPSESK (UniProt P0DPB6)	-0.0947
POLK_Q9UBT6_161_RLCPQLIIVPPNFDK (UniProt Q9UBT6)	-0.118
PPFIA1_Q13136_189_CSLLEEELGATHK (UniProt Q13136)	0.0753
POU2F1_P14859-2_4_MLDCSDYVLDSR (UniProt P14859)	-0.206
POLB_P06746_178_KVDSEYIATVCGSFR (UniProt P06746)	0.0466
POR_P16435_472_VHPNSVHICAVVVEYETK (UniProt P16435)	0.0977
POLQ_O75417_2411_ENDAACYIDSFK (UniProt O75417)	0.0656
